Measured values reported in US20250325643A1.
These are yes or no findings as the source states them, for the method shown. Some entries that bind do so weakly or less than the wild type. Sequences can lack the tags named with a protein.

The chains behind the UniProt entries cited, without tags or fusion partners. Where a name states a change or a piece, a line headed by the entry shows the natural chain unless it says otherwise.
UniProt P26842: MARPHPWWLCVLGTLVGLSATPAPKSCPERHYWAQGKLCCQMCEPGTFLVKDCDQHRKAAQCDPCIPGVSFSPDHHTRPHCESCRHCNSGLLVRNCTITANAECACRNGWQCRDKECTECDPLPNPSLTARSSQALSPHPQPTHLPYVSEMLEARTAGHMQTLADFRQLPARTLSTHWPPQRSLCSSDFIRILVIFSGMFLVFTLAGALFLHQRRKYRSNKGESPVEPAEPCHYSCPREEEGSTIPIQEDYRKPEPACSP

Tests used:
[1] = molecular target: human CD27 expressed on cells (T cells, transfected HEK293F cells, Daudi cells, NFκB-luc2/CD27 Jurkat reporter cells) (human) (UniProt P26842); assay: flow cytometry on HEK293F cells transiently transfected with human CD27, PE-labelled goat anti-human IgG, median MFI PE
[2] = molecular target: human CD27 expressed on cells (T cells, transfected HEK293F cells, Daudi cells, NFκB-luc2/CD27 Jurkat reporter cells) (human) (UniProt P26842); assay: flow cytometry on T cells in human PBMC (endogenous CD27), PE-labelled goat anti-human IgG, median MFI PE
[3] = molecular target: human CD27 expressed on cells (T cells, transfected HEK293F cells, Daudi cells, NFκB-luc2/CD27 Jurkat reporter cells) (human) (UniProt P26842); assay: flow cytometry on T cells and transfected HEK293F cells
[4] = molecular target: human CD27 expressed on cells (T cells, transfected HEK293F cells, Daudi cells, NFκB-luc2/CD27 Jurkat reporter cells) (human) (UniProt P26842); assay: flow cytometry on human T cells and HEK293F cells transfected with human CD27

Measured: binding

B1: IgG1-CD27-A carrying mutations F405L-L234F-L235E-D265A in the IgG Fc domain (antibody, V domains shown)
VH: QVQLMQSGSELKKPGASVKVSCRASGYTFTTYAMNWVRQAPGQGPEWMGWINTNTGNPTYAQGFTGRFVFSLDTTVTTTYLQISSLKAEDTAVYFCAREAGSFDYWGQGTLVTVSS
VL: QSALTQPASVSGSPGQSITISCTGTSSDVYYYNYVSWYQQHPGRAPKLVIYDVSNRPSGVSNRFSGSKSGNTASLTISGLRAEDEADYYCSSYTVNRVWVFGGGTKLTVL
binds: all assays above
